Earlier results in patent US20190008973A1, “INTRALIPID-IODINE FOR IMAGING” (priority 2017, published 2019).
Like-named read-outs stand apart in the source and are kept apart here.

Details: cited from earlier work

CCN(CC)CC(=O)Nc1c(C)cccc1C [lidocaine]
mean un-entrapped lidocaine AUC 0 to 30 min (during Ringer infusion): 21.3 mg·min/L
mean un-entrapped lidocaine AUC 0 to 30 min (during lipid infusion): 16.4 mg·min/L
